Experimental data as given in PubChem BioAssay AID2685 (National Center for Advancing Translational Sciences (NCATS), 2010).
The other results are listed elsewhere or left out. The main result of the screen is listed elsewhere. These columns were measured beside it and carry no call. Most of these compounds were active or inconclusive in the main read-out, so they are no random draw. Potencies come from curve fits of mixed quality, noted in brackets.

Experiment: qHTS Assay for Lipid Storage Modulators in Drosophila S3 Cells;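 for cell number change: cells counted by Cell Tracker Red CMTPX staining in the red channel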
Conditions: BODIPY lipid droplet fluorescence, 18-24 h; for cell number change: measured here: cell count max response, cells fed with added oleic acid
Procedure, shortened: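 Drosophila S3 cells loaded with oleic acid (400 uM, as added) and compounds at several concentrations; lipid droplets imaged by 488-nm laser-scanning cytometry, 500–530 nm intensity and object ratio to cell channel. Percent activity normalized to 20 uM Triacsin C.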

[1] = measured here: lipid fluorescence (Fed channel) AC50, cells fed with added oleic acid
[2] = measured here: cell number channel AC50, cells fed with added oleic acid

SMILES | cell number change [%] | AC50 [1] | AC50 [2]
O=C(COC(=O)/C=C/c1ccc(F)cc1)Nc1nnc(-c2ccccc2)o1 | -5.7 | 29.1 µM [falling, single point] | 
COc1ccc(CCNC(=O)CSc2n[nH]c(N)n2)cc1OC | -13.3 | 0.206 µM [falling, single point] | 
CCOc1ccc(NC(=O)c2ccc(NC(=O)c3ccccc3Br)cc2)cc1 | 13 |  | 
CC(OCC(O)CN1CCCCC1CCO)c1ccc(Cl)cc1 (stereo unspecified) | 8.4 |  | 
CN1CCN(CCC(=O)Nc2cccc(Br)c2)CC1 | -14.6 |  | 
Cc1cc(C)c(NC(=O)C(C)OC(=O)c2cc(Br)c(Br)s2)c(C)c1 (stereo unspecified) | -0.352 | 0.651 µM [falling, full curve, poor fit] | 
Cc1nn2c(=O)cc(COC(=O)c3ccc(NC(=O)C(C)(C)C)cc3)nc2s1 |  | 11.6 µM [falling, partial curve] | 
CNc1cc(-n2nc(C)cc2-c2ccccc2)ncn1 | 1.44 | 2.59 µM [rising, single point] | 
O=C(NCc1ccco1)C(=O)NCC1OCCN1S(=O)(=O)c1ccc(Cl)cc1 (stereo unspecified) | 0.503 | 0.58 µM [rising, single point] | 
Cc1cc(C(=O)CSc2nc(N)cc(=O)[nH]2)c(C)n1-c1cccc(F)c1 | -2.11 | 29.1 µM [falling, single point] | 
CCOc1c(Br)cc(CNc2ccc(N3CCN(C(C)=O)CC3)cc2)cc1OC | -0.367 |  | 
Cc1ccc(C)c(NC(=O)C(Sc2ncnc3ccccc23)c2ccccc2)c1 (stereo unspecified) |  | 0.731 µM [falling, full curve] | 
COc1ccccc1NC(=O)Cn1cnc2sc(C(=O)Nc3ccc(OC)c(OC)c3)c(C)c2c1=O | -2.85 | 1.46 µM [rising, partial curve] | 
O=C(CCC(=O)Nc1ccc(F)cc1)N/N=C/c1cc([N+](=O)[O-])ccc1O | -12 | 1.84 µM [falling, single point] | 
Cc1ncc(CO)c2c1Oc1nc(-c3ccccc3)nc(SCC(=O)N3CCCCC3)c1C2 | -23.3 |  | 0.231 µM [falling, full curve, poor fit]
C[n+]1cn(Cc2cc(Cl)ccc2OC(F)F)c2ccccc21 | -7.8 |  | 6.51 µM [rising, single point]
O=C(COC(=O)C1CCN(c2ccc(C(F)(F)F)cn2)CC1)Nc1ccc(Cl)cn1 | 1.64 | 0.0291 µM [falling, full curve, poor fit] | 
Cc1ccn2c(=O)nc(SCC(=O)Nc3cc(C)on3)nc2c1 |  |  | 0.326 µM [rising, full curve]
COc1ccc2nc(C)cc(N3CCOCC3)c2c1 |  | 0.291 µM [falling, partial curve, poor fit] | 
COc1ccc(Cl)cc1Nc1nc(N)c2ccccc2n1 | -15.8 | 2.31 µM [rising, partial curve] | 

SMILES | cell number change [%] | AC50 [1] | AC50 [2]
COc1ccc(NC(=O)NNC(=O)COc2ccc3ccccc3c2)cc1OC | 32.7 | 29.1 µM [rising, single point] | 32.6 µM [rising, single point]
CC1Cc2ccccc2N1C(=O)CN(C)CC(=O)Nc1cccc(F)c1 (stereo unspecified) | 6.64 |  | 6.51 µM [falling, single point]
O=C(CSc1cccc(C(F)(F)F)c1)Nc1ccc(Cl)cc1Cl | -62.6 |  | 13 µM [falling, partial curve, poor fit]
Cn1c(=O)c2c(nc(N/N=C/c3cccnc3)n2Cc2ccccc2)n(C)c1=O | 13.8 | 1.16 µM [rising, full curve, poor fit] | 
Cn1c2ccccc2c(=O)c2c(=O)n(-c3ccc(F)cc3)c(-c3cccs3)nc21 | -41.9 | 29.1 µM [falling, single point] | 18.4 µM [falling, single point]
COc1ccc(CN(CC(=O)NCc2ccccc2)C(=O)CCC(=O)Nc2cc(C)ccn2)cc1 | -32.1 | 6.51 µM [falling, single point] | 0.13 µM [falling, full curve, poor fit]
CCn1cc(C=O)c2cc(S(=O)(=O)N3CCOCC3)ccc21 | -13.8 | 13 µM [rising, single point] | 
CCSC1=NC(C)(C)C=C(C)N1 | -9.47 | 3.26 µM [falling, single point] | 3.66 µM [falling, single point]
CS(=O)(=O)Nc1ccc(C2=NN(S(=O)(=O)c3ccc(F)cc3)C(c3ccco3)C2)cc1 (stereo unspecified) | 11.6 |  | 
COC(=O)Nc1nnc(Cc2ccc(OC)cc2)s1 | 8.23 | 4.61 µM [falling, single point] | 
CCn1c2ccccc2c2cc(NC(=O)CSc3nnc(-c4ccccc4OC)n3N)ccc21 |  | 0.58 µM [rising, partial curve] | 0.206 µM [rising, full curve, poor fit]
CCOc1ccccc1NC(=O)COC(=O)CN(C)S(=O)(=O)c1ccc(C)cc1 |  | 6.51 µM [rising, single point] | 0.651 µM [rising, single point]
Cc1cc(/C([O-])=C(/C(=S)Nc2ccc(F)cc2)[n+]2ccccc2)c(C)n1Cc1ccccc1Cl | 36.9 |  | 4.61 µM [rising, partial curve]
Cc1cc(C)n2c(SC/C(O)=C(\C#N)c3nc4ccccc4[nH]3)nnc2n1 | -11.4 |  | 
O=C(N/N=C/c1cnc2ccccc2n1)c1cccc(F)c1 | 28.5 | 1.46 µM [rising, full curve] | 
CCOc1ccc(S(=O)(=O)N(C)CC(=O)NCCN2CCOCC2)cc1 | -34.2 |  | 29.1 µM [falling, single point]
Cc1ccc2oc(C(=O)N(CCO)Cc3ccccc3)c(C)c2c1 | -12.9 | 13 µM [falling, partial curve] | 
CCC(=O)Nc1cccc(NC(=O)c2ccc(C)c([N+](=O)[O-])c2)c1 | 12.6 | 0.00461 µM [rising, full curve, poor fit] | 
Cc1cccc(S(=O)(=O)NCCNS(=O)(=O)c2cccc(C)c2)c1 | -11.5 |  | 

A run of entries from further up, for reference:
SMILES | cell number change [%] | AC50 [1] | AC50 [2]
O=C(CSc1cccc(C(F)(F)F)c1)Nc1ccc(Cl)cc1Cl | -62.6 |  | 13 µM [falling, partial curve, poor fit]
Cn1c(=O)c2c(nc(N/N=C/c3cccnc3)n2Cc2ccccc2)n(C)c1=O | 13.8 | 1.16 µM [rising, full curve, poor fit] | 
